Measured values reported in PubChem BioAssay AID2417 (National Center for Advancing Translational Sciences (NCATS), 2010).
Screen size: about 140,000 compounds; about 4,300 (3.1%) were called active. Only results without a clear call are listed here; the source files them as inconclusive.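 Rule for the calls: active = readout at or below -70, meaning at least 70% loss of cells showing the perinucleolar compartment, a nuclear body marking cancer cells; inconclusive = readout between -30 and a set limit; inactive = the rest.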

assay: High Content Assay for Compounds that inhibit the Assembly of the Perinucleolar Compartment; settings: PC3M PTB-GFP, PNC prevalence imaging, 16 h; at 10 µM; hits give low values;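 note: plate controls were DMSO wells for no effect and camptothecin positive control wells for full effect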
From the text: High Content Assay for Compounds that inhibit the Assembly of the Perinucleolar Compartment NIH Chemical Genomics Center [NCGC] NIH Molecular Libraries Probe Centers Network [MLPCN] MLPCN Grant: MH082371-01A2 Assay Submitter (PI): Sui Huang, Northwestern University, Feinberg School of Medicine, Cell and Molecular Biology, Chicago, Illinois. The perinucleolar compartment (PNC) is a non-membrane-bound nuclear subdomain that is associated with but structurally distinct from the nucleolus. The PNC is a heritable trait, in which the number of PNCs per cell in daughter cells often mimics that of their mother cells. The PNC is heterogeneous in shape, is stable through interphase, disassembles during mitosis, and reassembles in early G1. The PNC is concentrated with newly synthesized RNA polymerase III (pol III) RNAs (MRP RNA, RNAse P H1 RNA, hY RNAs[hY1, 2, 5], Alu RNA, and SRP [7SL] RNA) and RNA binding proteins (nucleolin, PTB, CUG-BP, KSRP, Raver1, Raver2, and Rod). […] Extensive in vitro studies have shown that the PNC is unique to tumor cells and preferentially forms in tumor cells derived from solid tissues. […]
PNC High Content Imaging Assay Procedure: 1. […] PNC prevalence was determined using the Multitarget analysis module from InCell Workstation software (V3.5 ) and analysis was run on a quad core workstation using the Incell Developer Toolbox (V1.7). […]

Compound | activity change (PNC), negative = inhibition
CCN(CC)CC(O)COC(=O)C(O)(c1ccccc1)C1CCCCC1 (configuration not stated) | inconclusive: -33.8%
CN(C)CCOC(=O)C(O)(c1ccccc1)C1CCCCC1 (configuration not stated) | inconclusive: -62.3%
